Reference: paper doi:10.1101/2024.01.20.576407
No constants are given. Whether binding was seen depends on the method and setting. Some entries that bind do so weakly or less than the wild type. Tags and fused reporters may be left off the sequences shown.

Biological target: T1, 3Flag-Aurora B^AUK1 (Trypanosoma brucei) (UniProt Q384J7)
T1 sequence: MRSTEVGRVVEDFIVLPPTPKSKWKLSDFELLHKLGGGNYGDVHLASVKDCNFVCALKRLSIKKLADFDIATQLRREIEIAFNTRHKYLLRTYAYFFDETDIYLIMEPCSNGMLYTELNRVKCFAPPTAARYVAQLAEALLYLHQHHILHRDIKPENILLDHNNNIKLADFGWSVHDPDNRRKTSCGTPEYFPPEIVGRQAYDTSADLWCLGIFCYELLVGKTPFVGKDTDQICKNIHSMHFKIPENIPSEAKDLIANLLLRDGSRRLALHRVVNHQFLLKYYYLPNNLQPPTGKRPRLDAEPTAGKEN
Assay: co-purification of a co-expressed complex; 3Flag-Aurora B^AUK1 (wild type or K58R) and INCENP^CPC1 co-expressed in Sf9 cells from one bacmid and purified as a complex (protocol of Llauró et al., 2018)

binding: binds
B1: INCENP^CPC1 (protein, UniProt Q586F4 1-263)
chain: MSNPWNAKLVEELLFRQYEKGEDVSMLLPPPPALSVDQYLKEYEQSTKVLFAYVRNGPANALTPQNINNPRMYGGTPTKGSSSMQRTGNQGGATCATTSSSSACGVDSKAQMQRHPRGLDGSQSAAPSLPLTAGDAAAGQGSMAPPEHIRKRIEWPATVPTNSALKSNSRSRVANLTTKRVAAQERVDPDLIFMQNPEELPLHTIFAKYPKAVESIAALRGGSGDWREDTFTEEEEILYKRELRYSHMGPSQCGFFRSNLIQR
